We go through two substances from PMC7273965.

The chains behind the UniProt entries cited, without tags or fusion partners. Residues count along the entry.
UniProt P20029, residues 20-655: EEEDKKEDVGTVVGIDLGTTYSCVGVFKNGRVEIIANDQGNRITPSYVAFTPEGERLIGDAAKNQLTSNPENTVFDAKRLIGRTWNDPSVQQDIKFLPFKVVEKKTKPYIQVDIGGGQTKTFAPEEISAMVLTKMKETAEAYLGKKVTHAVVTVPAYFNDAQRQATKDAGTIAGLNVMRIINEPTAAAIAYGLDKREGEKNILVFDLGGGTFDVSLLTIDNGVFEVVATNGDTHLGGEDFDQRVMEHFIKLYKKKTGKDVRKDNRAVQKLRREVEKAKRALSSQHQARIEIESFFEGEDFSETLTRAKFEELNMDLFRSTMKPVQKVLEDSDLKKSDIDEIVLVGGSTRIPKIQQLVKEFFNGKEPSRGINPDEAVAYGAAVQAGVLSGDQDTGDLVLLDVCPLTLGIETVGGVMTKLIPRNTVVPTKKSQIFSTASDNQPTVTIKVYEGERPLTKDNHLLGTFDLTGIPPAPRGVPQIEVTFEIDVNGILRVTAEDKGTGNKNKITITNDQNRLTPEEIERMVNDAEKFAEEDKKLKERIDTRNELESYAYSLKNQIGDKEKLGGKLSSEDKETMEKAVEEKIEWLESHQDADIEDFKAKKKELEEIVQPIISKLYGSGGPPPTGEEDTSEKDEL
UniProt P11021, residues 19-654: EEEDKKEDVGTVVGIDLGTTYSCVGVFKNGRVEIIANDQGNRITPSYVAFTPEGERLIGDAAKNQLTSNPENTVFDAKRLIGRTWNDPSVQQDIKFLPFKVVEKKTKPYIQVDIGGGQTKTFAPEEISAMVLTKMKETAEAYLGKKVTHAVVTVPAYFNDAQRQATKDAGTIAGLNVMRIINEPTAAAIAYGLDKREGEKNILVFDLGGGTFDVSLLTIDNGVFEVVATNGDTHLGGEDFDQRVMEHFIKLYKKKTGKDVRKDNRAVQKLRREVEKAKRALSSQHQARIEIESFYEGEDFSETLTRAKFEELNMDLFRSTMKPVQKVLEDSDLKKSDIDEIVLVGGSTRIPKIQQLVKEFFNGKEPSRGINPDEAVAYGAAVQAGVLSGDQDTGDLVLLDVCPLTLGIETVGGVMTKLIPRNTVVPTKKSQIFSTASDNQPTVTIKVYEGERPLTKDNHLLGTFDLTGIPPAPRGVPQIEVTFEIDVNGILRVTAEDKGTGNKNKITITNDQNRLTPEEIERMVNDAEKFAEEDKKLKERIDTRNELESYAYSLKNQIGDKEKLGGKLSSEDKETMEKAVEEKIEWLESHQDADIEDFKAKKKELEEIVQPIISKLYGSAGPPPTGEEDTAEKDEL

No constants are given. Whether binding was seen depends on the method and setting. Some entries that bind do so weakly or less than the wild type.

Test [1] concerns the target recombinant neuroleukin (NLK), His-tagged (UniProt P06744). Put plainly: co-IP; 20 pmol recombinant NLK and 10 pmol recombinant GRP78 co-incubated 1 h at RT, precipitated with anti-His-tag antibody (or normal mouse IgG) cross-linked to Dynabeads Protein G, 2 h at RT; Western blot for GRP78 and NLK; both purified. (In general: In western blotting, separated proteins are transferred to a membrane and probed.)

Test [2] deals with 78-kDa glucose-regulated protein (GRP78) of cultured mouse cortical neurons (plasma membrane / cell surface) (mouse (endogenous in cultured cortical neurons of ddY mice)) (UniProt P20029). In words: drug affinity responsive target stability (DARTS); plasma membrane lysate of cultured neurons (5 µg protein) incubated 30 min at RT with 10 µg/ml recombinant NLK or vehicle, then thermolysin 30 min at 37°C (50 mM Tris-HCl pH 8.0, 50 mM NaCl, 10 mM CaCl2); GRP78 detected by Western blot; only the binder purified.

For the substance “recombinant 78-kDa glucose-regulated protein (GRP78) (from UniProt P11021 19-654)”, the binding result in test [1] is “binds”.

Regarding “recombinant neuroleukin (NLK), His-tagged (from UniProt P06744 1-558) (ligand)”, in test [2], the binding result is reported as “binds”.
